Earlier results in US10253344B2, “Recombinant production of steviol glycosides” (Conagen Inc., priority 2013, dated 2019).
Some of these results come from one statement about several compounds together. For at least one compound, name, drawing or mass did not settle the structure.

Conditions: cited from earlier work

Structure (SMILES) | sweetness
C=C1C[C@@]23CC[C@H]4[C@@](C)(CCC[C@@]4(C)C(=O)O[C@@H]4O[C@H](CO)[C@@H](O)[C@H](O)[C@H]4O)[C@@H]2CC[C@]1(O[C@@H]1O[C@H](CO)[C@@H](O)[C@H](O[C@@H]2O[C@H](CO)[C@@H](O)[C@H](O)[C@H]2O)[C@H]1O[C@@H]1O[C@H](CO)[C@@H](O)[C@H](O)[C@H]1O)C3 [rebaudioside A] | 250-450 times sweeter than sucrose
C=C1C[C@@]23CC[C@H]4[C@@](C)(CCC[C@@]4(C)C(=O)O[C@@H]4O[C@H](CO)[C@@H](O)[C@H](O)[C@H]4O[C@@H]4O[C@H](CO)[C@@H](O)[C@H](O)[C@H]4O)[C@@H]2CC[C@]1(O[C@@H]1O[C@H](CO)[C@@H](O)[C@H](O)[C@H]1O[C@@H]1O[C@H](CO)[C@@H](O)[C@H](O)[C@H]1O)C3 [rebaudioside E] | 250-450 times sweeter than sucrose
